# Experimental data reported in the supplement of paper PMC10849652.
# Chains of the proteins cited; added tags and fusions are not shown. Lines headed by an entry give the natural chain unless they say otherwise; changes in a name come on top.
# UniProt Q01196, whole entry, looked up: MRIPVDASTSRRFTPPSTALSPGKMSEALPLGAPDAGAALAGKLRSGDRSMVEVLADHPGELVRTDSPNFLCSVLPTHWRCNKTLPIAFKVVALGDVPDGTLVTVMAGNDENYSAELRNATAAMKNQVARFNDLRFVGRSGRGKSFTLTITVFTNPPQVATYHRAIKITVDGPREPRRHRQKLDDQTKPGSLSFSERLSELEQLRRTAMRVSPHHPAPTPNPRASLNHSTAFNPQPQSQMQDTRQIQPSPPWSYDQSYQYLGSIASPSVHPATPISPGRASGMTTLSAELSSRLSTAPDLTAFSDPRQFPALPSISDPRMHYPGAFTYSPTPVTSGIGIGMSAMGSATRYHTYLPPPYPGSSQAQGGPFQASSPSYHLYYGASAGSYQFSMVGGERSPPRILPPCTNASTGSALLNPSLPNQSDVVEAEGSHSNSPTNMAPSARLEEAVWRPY
# UniProt Q7L4I2: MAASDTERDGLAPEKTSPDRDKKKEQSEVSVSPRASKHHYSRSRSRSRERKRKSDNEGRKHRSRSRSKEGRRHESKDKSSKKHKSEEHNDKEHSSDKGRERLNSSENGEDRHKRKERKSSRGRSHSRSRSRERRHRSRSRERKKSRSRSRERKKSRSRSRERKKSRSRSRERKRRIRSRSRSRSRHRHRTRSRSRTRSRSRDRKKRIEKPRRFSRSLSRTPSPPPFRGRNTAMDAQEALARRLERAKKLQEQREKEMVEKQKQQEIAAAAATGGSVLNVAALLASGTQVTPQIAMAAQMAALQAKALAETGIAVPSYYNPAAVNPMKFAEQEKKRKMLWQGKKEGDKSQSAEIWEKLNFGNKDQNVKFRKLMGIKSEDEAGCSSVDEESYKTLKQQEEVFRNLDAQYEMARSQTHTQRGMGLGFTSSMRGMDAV
# UniProt O94885: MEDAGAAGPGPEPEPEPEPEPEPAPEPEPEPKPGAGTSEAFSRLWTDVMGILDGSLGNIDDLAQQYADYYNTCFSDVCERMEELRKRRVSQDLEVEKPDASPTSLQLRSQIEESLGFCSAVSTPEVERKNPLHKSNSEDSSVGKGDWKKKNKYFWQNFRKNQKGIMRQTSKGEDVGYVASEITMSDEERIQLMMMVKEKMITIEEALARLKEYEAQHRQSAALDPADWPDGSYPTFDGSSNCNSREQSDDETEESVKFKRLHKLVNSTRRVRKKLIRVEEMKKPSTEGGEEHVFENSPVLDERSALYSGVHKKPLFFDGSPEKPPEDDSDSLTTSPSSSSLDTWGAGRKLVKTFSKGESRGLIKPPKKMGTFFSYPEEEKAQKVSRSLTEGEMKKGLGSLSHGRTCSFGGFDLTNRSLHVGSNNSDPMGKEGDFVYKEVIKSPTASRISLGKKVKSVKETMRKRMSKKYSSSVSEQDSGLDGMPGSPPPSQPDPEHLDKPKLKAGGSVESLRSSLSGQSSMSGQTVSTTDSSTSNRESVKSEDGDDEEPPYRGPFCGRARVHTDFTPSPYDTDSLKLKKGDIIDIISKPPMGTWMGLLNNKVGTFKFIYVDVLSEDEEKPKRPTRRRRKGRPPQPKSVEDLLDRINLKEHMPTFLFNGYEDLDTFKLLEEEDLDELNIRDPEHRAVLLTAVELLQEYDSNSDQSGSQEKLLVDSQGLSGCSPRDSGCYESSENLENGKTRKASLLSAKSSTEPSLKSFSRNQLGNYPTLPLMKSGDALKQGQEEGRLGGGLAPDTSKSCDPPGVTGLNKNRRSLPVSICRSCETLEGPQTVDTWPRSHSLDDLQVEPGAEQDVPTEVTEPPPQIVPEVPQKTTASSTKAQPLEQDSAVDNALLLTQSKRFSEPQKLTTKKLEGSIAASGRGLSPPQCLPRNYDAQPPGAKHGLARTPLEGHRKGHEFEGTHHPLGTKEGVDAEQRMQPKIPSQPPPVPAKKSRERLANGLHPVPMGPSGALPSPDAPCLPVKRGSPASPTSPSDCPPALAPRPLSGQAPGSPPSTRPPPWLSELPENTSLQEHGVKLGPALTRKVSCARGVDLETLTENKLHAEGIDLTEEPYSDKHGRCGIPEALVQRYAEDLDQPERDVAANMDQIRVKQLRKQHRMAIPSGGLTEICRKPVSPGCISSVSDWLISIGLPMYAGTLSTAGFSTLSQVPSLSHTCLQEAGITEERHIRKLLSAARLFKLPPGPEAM
# UniProt Q5VUM1: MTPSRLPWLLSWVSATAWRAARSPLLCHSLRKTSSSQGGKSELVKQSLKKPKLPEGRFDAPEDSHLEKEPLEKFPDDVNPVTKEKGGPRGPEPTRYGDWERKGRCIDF
# UniProt P29034: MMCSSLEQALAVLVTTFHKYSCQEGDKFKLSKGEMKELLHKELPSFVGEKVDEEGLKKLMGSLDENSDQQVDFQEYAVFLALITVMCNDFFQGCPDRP
# UniProt O00560: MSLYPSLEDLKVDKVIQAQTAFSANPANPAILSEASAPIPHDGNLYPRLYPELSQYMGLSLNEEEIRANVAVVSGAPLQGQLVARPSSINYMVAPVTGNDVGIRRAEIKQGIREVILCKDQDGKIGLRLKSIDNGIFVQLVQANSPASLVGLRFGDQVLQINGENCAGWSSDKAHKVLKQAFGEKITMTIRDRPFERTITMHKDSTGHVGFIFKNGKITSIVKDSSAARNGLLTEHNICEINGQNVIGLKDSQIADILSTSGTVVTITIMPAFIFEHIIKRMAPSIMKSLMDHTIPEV
# UniProt Q9NX18: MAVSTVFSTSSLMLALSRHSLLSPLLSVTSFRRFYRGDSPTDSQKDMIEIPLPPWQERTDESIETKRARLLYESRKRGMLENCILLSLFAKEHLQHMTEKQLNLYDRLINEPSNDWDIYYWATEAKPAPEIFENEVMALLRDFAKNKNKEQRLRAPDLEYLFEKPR
# UniProt O15027: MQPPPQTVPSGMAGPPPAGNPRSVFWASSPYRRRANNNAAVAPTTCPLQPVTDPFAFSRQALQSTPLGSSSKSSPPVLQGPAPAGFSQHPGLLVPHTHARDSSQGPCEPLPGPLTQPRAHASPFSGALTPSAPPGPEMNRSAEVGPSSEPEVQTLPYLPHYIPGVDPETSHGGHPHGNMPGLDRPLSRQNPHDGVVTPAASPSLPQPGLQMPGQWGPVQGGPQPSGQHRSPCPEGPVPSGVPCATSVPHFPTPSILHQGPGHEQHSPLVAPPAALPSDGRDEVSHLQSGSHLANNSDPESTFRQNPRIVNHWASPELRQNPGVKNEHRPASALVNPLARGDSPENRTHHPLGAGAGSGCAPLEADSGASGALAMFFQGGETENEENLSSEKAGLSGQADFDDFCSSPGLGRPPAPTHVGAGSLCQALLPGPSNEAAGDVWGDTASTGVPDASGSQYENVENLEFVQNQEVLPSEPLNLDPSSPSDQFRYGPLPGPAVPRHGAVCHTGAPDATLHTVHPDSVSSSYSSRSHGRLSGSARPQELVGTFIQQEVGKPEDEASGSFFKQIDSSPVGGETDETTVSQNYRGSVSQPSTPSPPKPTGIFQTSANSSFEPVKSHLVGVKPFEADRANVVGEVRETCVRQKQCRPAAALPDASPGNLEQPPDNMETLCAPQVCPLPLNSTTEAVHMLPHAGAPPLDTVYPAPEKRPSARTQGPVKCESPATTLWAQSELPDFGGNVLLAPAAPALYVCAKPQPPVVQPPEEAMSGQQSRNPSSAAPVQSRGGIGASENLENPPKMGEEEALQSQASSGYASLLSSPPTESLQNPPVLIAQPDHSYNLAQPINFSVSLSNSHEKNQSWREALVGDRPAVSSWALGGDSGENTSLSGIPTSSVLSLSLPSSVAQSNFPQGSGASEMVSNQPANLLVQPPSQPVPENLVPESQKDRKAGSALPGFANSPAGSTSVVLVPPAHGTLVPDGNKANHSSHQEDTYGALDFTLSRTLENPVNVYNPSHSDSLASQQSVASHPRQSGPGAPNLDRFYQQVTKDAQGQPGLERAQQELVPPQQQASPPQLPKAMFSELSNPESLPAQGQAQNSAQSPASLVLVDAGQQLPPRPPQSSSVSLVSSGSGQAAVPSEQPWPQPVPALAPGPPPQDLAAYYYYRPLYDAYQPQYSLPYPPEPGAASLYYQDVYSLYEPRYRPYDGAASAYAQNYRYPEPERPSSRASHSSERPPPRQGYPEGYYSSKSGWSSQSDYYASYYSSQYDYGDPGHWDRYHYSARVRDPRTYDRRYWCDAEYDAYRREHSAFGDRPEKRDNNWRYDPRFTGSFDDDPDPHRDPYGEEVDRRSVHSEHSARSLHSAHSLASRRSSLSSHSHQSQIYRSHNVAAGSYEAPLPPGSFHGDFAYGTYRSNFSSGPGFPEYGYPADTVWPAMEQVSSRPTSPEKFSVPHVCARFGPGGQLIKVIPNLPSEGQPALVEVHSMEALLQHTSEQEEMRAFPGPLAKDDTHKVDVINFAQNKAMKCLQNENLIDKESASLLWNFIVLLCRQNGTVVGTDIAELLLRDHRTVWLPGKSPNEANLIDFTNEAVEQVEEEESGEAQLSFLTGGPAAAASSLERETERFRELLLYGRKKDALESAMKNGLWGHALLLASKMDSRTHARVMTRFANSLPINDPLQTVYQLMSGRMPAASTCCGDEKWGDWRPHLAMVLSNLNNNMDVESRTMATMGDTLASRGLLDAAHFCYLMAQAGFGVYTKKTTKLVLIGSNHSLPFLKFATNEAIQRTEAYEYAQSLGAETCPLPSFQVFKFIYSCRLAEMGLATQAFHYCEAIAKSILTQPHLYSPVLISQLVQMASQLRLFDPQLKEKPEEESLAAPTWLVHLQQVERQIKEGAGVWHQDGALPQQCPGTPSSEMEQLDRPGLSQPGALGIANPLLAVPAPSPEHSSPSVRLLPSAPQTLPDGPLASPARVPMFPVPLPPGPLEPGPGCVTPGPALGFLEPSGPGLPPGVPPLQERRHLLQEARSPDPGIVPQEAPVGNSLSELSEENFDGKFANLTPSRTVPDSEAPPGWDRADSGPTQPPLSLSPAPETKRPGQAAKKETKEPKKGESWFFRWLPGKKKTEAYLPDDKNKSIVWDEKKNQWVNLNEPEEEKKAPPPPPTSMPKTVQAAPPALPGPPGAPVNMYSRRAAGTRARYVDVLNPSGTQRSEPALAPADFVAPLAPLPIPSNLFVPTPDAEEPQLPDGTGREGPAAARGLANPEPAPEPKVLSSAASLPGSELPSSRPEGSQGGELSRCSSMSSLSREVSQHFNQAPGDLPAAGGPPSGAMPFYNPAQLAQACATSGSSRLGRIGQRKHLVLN
# UniProt P60903, whole entry, looked up: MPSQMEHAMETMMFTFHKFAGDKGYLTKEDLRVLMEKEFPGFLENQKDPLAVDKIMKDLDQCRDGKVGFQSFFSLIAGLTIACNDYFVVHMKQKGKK
# UniProt Q9NTJ5: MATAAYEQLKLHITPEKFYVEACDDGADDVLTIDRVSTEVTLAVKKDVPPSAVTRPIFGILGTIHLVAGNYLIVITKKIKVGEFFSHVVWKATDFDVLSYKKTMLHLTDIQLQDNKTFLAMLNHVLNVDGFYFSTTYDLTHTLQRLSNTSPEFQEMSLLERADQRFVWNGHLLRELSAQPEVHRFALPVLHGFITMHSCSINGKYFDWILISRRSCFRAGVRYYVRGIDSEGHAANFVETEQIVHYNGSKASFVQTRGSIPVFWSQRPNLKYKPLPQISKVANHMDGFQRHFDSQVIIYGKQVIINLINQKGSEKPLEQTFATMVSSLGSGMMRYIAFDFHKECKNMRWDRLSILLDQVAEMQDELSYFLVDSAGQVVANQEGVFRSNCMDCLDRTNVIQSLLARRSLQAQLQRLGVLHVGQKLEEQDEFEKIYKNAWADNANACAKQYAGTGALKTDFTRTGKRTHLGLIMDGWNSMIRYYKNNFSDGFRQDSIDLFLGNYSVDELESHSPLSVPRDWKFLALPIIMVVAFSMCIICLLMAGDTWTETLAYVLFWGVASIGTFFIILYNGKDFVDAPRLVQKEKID
# UniProt Q96T51: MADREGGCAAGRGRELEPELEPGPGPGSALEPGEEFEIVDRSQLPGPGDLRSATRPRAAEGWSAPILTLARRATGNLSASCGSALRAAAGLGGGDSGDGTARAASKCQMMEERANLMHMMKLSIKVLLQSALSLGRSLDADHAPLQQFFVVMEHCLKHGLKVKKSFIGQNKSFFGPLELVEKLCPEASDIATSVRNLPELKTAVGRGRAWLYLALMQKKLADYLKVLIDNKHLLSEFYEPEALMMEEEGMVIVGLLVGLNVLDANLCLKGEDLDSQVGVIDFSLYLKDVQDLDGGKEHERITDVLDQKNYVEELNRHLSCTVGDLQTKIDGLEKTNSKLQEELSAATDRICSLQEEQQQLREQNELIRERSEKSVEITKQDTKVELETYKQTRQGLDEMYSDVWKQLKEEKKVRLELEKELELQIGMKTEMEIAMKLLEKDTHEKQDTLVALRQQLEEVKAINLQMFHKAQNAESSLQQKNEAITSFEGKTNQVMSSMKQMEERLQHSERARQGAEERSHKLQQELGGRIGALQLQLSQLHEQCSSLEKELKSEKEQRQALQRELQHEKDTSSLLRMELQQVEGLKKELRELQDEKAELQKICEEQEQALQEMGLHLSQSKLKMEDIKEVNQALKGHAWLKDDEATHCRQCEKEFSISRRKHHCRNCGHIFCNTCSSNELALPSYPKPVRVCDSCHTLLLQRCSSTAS
# Some of the results follow.
# Assays:
# Assay in all cases: log2 fold change, soluble protein after heating vs DMSO (PISA); higher = thermal stabilisation; K562 cells, 10 uM, 30 min; active = over 0.2 and 3.5 SD of the protein, either way, in both replicates (recomputed)
# [1] = compound: CC[C@@H]1C(=O)N(C)c2cnc(Nc3ccc(C(=O)NC4CCN(C)CC4)cc3OC)nc2N1C1CCCC1
# In short: (§1)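 Thermal stability values are relative to control samples and come from duplicates. They are expressed as log2 fold changes. For measurement, K562 cells (2×10^6 cells/mL) received 10 μM compound for 30 min, and aliquots were heated for 3 min over 48°C-58°C, pooled, and extracted at 4°C in PBS with 0.5% NP-40. Soluble protein, the supernatant after 21,000xg for 90 min, was quantified by TMTpro 16plex LC-MS/MS with equalised channel sums.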
# volasertib = compound: CC[C@@H]1C(=O)N(C)c2cnc(Nc3ccc(C(=O)N[C@H]4CC[C@H](N5CCN(CC6CC6)CC5)CC4)cc3OC)nc2N1C(C)C [volasertib]
# In short: as §1
# [2] = compound: CC[C@H](C)N1C=C(C2=C(C=C(C=C21)C3=CN=C(C=C3)N4CCNCC4)C(=O)NCC5=C(C=C(NC5=O)C)C)C
# In short: as §1
# epoxomicin = compound: CC[C@H](C)[C@@H](C(=O)N[C@@H]([C@@H](C)O)C(=O)N[C@@H](CC(C)C)C(=O)[C@]1(CO1)C)NC(=O)[C@H]([C@@H](C)CC)N(C)C(=O)C [epoxomicin]
# In short: as §1
# [3] = compound: CCn1cc(-c2ccnc3[nH]c(-c4cccc(CN(C)C)c4)cc23)c(-c2ccc(NC(=O)N(C)C)cc2)n1
# In short: as §1
# [4] = compound: CN(C)CC(=O)Nc1ccc2[nH]c(=O)c3ccccc3c2c1
# In short: as §1
# [5] = compound: CN1C2=C(C3=C1C(=O)N(N=C3)CC4=CC(=CC=C4)N)SC(=C2)S(=O)C
# In short: as §1
# [6] = compound: CN1CCC(CNc2ccc3ncc(-c4cccc(OC(F)(F)F)c4)n3n2)CC1
# In short: as §1
# [7] = compound: CCn1c(C(=O)N(C2CC2)C2CC2)cc2c3c(ncn3C)c(Nc3cc(C)n(C)n3)nc21
# In short: as §1
# rosiglitazone = compound: CN(CCOC1=CC=C(C=C1)C[C@H]2C(=O)NC(=O)S2)C3=CC=CC=N3 (racemic) [rosiglitazone]
# In short: as §1
Target,log2 fold change [1],log2 fold change (volasertib),log2 fold change [2],log2 fold change (epoxomicin),log2 fold change [3],log2 fold change [4],log2 fold change [5],log2 fold change [6],log2 fold change [7],log2 fold change (rosiglitazone)
SCG3 (UniProt Q8WXD2),inactive: 0.04,inactive: 0.134,inactive: -0.013,inactive: -0.119,inactive: 0.035,inactive: -0.099,inactive: -0.116,active: 0.6,–,–
RUNX1 isoform 8 (UniProt Q01196),inactive: -0.331,active: -0.434,inactive: 0.086,inactive: -0.206,inactive: -0.089,inactive: 0.06,inactive: -0.027,inactive: -0.102,–,–
RRP9 (UniProt O43818),inactive: 0.09,inactive: 0.148,inactive: -0.049,inactive: -0.107,inactive: 0.136,inactive: -0.113,inactive: 0.039,inactive: 0.236,–,–
SCYL3 isoform 2 (UniProt Q8IZE3),inactive: -0.114,active: -0.327,inactive: 0.047,inactive: 0.058,inactive: -0.101,inactive: -0.021,inactive: -0.05,inactive: -0.015,–,–
RSRC2 (UniProt Q7L4I2),inactive: 0.003,inactive: -0.032,inactive: -0.022,inactive: 0.031,inactive: -0.043,inactive: 0.007,inactive: -0.028,inactive: -0.025,–,–
SASH1 (UniProt O94885),inactive: -0.136,active: -0.308,inactive: 0.044,inactive: -0.075,inactive: 0.027,inactive: 0.042,inactive: 0.054,inactive: -0.29,–,–
SCAF11 (UniProt Q99590),inactive: 0.145,inactive: 0.153,inactive: -0.092,inactive: -0.074,inactive: 0.176,inactive: -0.142,inactive: 0.148,inactive: 0.25,–,–
RUFY3 isoform 3 (UniProt Q7L099),inactive: -0.135,inactive: -0.149,inactive: -0.071,–,inactive: 0.079,inactive: 0.011,inactive: -0.015,inactive: -0.048,–,–
SDHAF4 (UniProt Q5VUM1),inactive: 0.013,inactive: 0.075,inactive: -0.045,inactive: -0.066,–,–,inactive: -0.014,–,–,–
RSF1 (UniProt Q96T23),inactive: -0.138,inactive: -0.358,inactive: 0.012,inactive: 0.165,inactive: -0.098,inactive: 0.141,inactive: -0.008,inactive: -0.109,–,–
RRP36 (UniProt Q96EU6),inactive: 0.217,inactive: 0.376,inactive: -0.028,inactive: -0.203,inactive: 0.201,inactive: -0.114,inactive: 0.316,inactive: 0.288,–,–
RSPRY1 (UniProt Q96DX4),inactive: 0.082,inactive: -0.001,inactive: -0.019,inactive: 0.034,inactive: -0.034,inactive: -0.014,inactive: -0.176,active: 0.219,–,–
S100A2 (UniProt P29034),inactive: -0.174,inactive: 0.087,inactive: 0.596,–,–,inactive: -0.241,inactive: 0.594,–,inactive: -0.575,inactive: 0.655
SDCBP (UniProt O00560),inactive: -0.223,inactive: -0.249,inactive: 0.01,inactive: -0.043,inactive: -0.01,inactive: -0.061,inactive: 0.045,inactive: -0.229,–,–
SCPEP1 (UniProt Q9HB40),active: -0.608,active: -1.44,inactive: -0.022,inactive: 0.044,inactive: -0.095,inactive: -0.001,inactive: 0.019,active: -0.846,–,–
SDHAF2 (UniProt Q9NX18),inactive: 0.089,inactive: 0.093,inactive: -0.081,inactive: -0.057,inactive: 0.06,inactive: -0.004,inactive: 0.037,inactive: 0.045,–,–
SEC16A isoform 5 (UniProt O15027),inactive: -0.058,inactive: -0.271,inactive: 0.051,inactive: -0.04,inactive: -0.048,inactive: 0.1,inactive: 0.078,inactive: -0.047,–,–

Target,log2 fold change [1],log2 fold change (volasertib),log2 fold change [2],log2 fold change (epoxomicin),log2 fold change [3],log2 fold change [4],log2 fold change [5],log2 fold change [6],log2 fold change [7],log2 fold change (rosiglitazone)
SEC23A (UniProt Q15436),inactive: 0.149,inactive: -0.156,inactive: 0.1,inactive: -0.016,inactive: -0.123,inactive: 0.052,inactive: -0.027,inactive: 0.042,–,–
S100A10 (UniProt P60903),inactive: 0.284,inactive: -0.048,inactive: 0.145,–,inactive: -0.056,–,–,inactive: -0.026,–,–
"SDHB, A0A087WWT1",inactive: -0.008,inactive: 0.125,–,inactive: -0.107,inactive: 0.09,inactive: -0.074,inactive: 0.155,inactive: 0,inactive: 0.007,inactive: 0.345
SCAF8 isoform 2 (UniProt Q9UPN6),inactive: -0.065,inactive: -0.27,inactive: 0.037,inactive: 0.101,inactive: 0.071,inactive: 0.1,inactive: -0.045,inactive: 0.015,–,–
RTF2 (UniProt Q9BY42),inactive: -0.18,active: -0.45,inactive: 0.003,inactive: 0.118,inactive: 0.012,inactive: 0.005,inactive: -0.017,inactive: 0.161,–,–
SDCBP isoform 2 (UniProt O00560),inactive: -0.015,inactive: -0.221,inactive: -0.021,inactive: 0.056,inactive: -0.234,–,inactive: -0.196,inactive: -0.208,–,–
SACM1L (UniProt Q9NTJ5),inactive: -0.193,active: -0.534,inactive: -0.001,inactive: 0.019,inactive: -0.019,inactive: 0.033,inactive: -0.076,inactive: 0.031,–,–
RUFY1 (UniProt Q96T51),inactive: -0.145,active: -0.355,inactive: 0.07,inactive: -0.015,inactive: 0.06,inactive: 0.033,inactive: 0.032,inactive: -0.058,–,–
SEC31A (UniProt O94979),inactive: -0.035,active: -0.354,inactive: 0.021,inactive: 0.034,inactive: 0.018,inactive: 0.046,inactive: 0.051,inactive: -0.11,–,–
SCAMP3 isoform 2 (UniProt O14828),inactive: -0.002,inactive: 0.052,inactive: -0.096,inactive: 0.067,–,inactive: -0.051,–,–,–,inactive: -0.207
SAMSN1 isoform 3 (UniProt Q9NSI8),inactive: -0.069,inactive: -0.153,inactive: 0.026,inactive: 0.018,inactive: -0.065,inactive: 0.017,inactive: 0,active: -0.253,–,–
S100A4 (UniProt P26447),inactive: 0.212,inactive: -0.042,inactive: 0.176,–,–,–,–,–,inactive: 0.023,–
SAFB2 (UniProt Q14151),inactive: 0.018,inactive: 0.118,inactive: -0.022,inactive: -0.246,inactive: 0.203,inactive: -0.061,inactive: 0.235,inactive: 0.23,–,–
SEC24A (UniProt O95486),inactive: -0.077,active: -0.253,inactive: 0.018,inactive: 0.055,inactive: 0.003,inactive: 0.065,inactive: -0.054,inactive: -0.029,–,–
SCCPDH (UniProt Q8NBX0),inactive: 0.083,inactive: 0.158,inactive: -0.06,inactive: -0.024,inactive: -0.07,inactive: 0.039,inactive: -0.194,inactive: 0.216,–,–
"SART3, A0A499FI31",inactive: -0.235,active: -0.557,inactive: 0.061,inactive: 0.065,inactive: -0.017,inactive: 0.017,inactive: -0.056,inactive: -0.211,–,–

# 7 entries from above, as tab-separated lines:
Target	log2 fold change [1]	log2 fold change (volasertib)	log2 fold change [2]	log2 fold change (epoxomicin)	log2 fold change [3]	log2 fold change [4]	log2 fold change [5]	log2 fold change [6]	log2 fold change [7]	log2 fold change (rosiglitazone)
SEC23A (UniProt Q15436)	inactive: 0.149	inactive: -0.156	inactive: 0.1	inactive: -0.016	inactive: -0.123	inactive: 0.052	inactive: -0.027	inactive: 0.042	–	–
SCAF8 isoform 2 (UniProt Q9UPN6)	inactive: -0.065	inactive: -0.27	inactive: 0.037	inactive: 0.101	inactive: 0.071	inactive: 0.1	inactive: -0.045	inactive: 0.015	–	–
SDCBP isoform 2 (UniProt O00560)	inactive: -0.015	inactive: -0.221	inactive: -0.021	inactive: 0.056	inactive: -0.234	–	inactive: -0.196	inactive: -0.208	–	–
SACM1L (UniProt Q9NTJ5)	inactive: -0.193	active: -0.534	inactive: -0.001	inactive: 0.019	inactive: -0.019	inactive: 0.033	inactive: -0.076	inactive: 0.031	–	–
RUFY1 (UniProt Q96T51)	inactive: -0.145	active: -0.355	inactive: 0.07	inactive: -0.015	inactive: 0.06	inactive: 0.033	inactive: 0.032	inactive: -0.058	–	–
SCAMP3 isoform 2 (UniProt O14828)	inactive: -0.002	inactive: 0.052	inactive: -0.096	inactive: 0.067	–	inactive: -0.051	–	–	–	inactive: -0.207
SART3, A0A499FI31	inactive: -0.235	active: -0.557	inactive: 0.061	inactive: 0.065	inactive: -0.017	inactive: 0.017	inactive: -0.056	inactive: -0.211	–	–
